Measurements from PMC4707489, “A novel cell-penetrating peptide suppresses breast tumorigenesis by inhibiting β-catenin/LEF-1 signaling” (Scientific Reports, 2016).
Results are given in words; binding and its absence hold for the method and conditions named. In cells and extracts the contact can be indirect. Some binding calls cover weakened binding; strength is not graded here.

Chains of the proteins cited; added tags and fusions are not shown.
UniProt P35222: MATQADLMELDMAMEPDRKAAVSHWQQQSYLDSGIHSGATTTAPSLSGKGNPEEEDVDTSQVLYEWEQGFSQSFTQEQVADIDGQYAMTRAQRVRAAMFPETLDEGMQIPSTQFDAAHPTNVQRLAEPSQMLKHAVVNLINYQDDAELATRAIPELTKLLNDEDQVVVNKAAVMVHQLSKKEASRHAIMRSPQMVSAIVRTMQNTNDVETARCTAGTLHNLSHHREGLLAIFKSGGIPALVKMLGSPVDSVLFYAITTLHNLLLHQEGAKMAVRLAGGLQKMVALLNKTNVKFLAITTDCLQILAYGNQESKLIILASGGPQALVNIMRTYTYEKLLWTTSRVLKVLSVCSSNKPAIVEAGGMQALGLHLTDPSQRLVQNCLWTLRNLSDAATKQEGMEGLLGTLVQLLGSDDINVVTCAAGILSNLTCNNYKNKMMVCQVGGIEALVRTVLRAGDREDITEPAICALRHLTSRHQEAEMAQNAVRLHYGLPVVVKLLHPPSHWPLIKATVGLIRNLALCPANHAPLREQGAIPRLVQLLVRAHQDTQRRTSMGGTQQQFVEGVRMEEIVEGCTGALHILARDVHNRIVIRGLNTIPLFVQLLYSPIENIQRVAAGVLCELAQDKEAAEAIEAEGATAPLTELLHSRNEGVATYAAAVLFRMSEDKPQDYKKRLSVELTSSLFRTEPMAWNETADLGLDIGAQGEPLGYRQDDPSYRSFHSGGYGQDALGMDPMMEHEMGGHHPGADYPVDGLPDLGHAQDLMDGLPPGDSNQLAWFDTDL
UniProt Q9UJU2: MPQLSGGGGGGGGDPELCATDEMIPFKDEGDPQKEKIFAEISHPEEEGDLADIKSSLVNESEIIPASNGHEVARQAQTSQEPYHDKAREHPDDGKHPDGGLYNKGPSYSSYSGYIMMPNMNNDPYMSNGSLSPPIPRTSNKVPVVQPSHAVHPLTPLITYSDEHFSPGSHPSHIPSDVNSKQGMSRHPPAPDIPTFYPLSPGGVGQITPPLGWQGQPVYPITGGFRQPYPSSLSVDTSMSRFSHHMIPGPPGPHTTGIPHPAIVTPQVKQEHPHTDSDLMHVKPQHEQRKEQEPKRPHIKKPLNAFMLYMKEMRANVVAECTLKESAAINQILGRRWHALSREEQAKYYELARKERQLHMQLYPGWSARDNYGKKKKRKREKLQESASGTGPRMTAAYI

Biological target: β-catenin (human (endogenous in MCF-7 and MDA-MB-231)) (UniProt P35222)
Assay: co-IP; MCF-7 cells, with and without the peptide (indicated concentrations, 2 hr); RIPA lysate; immunoprecipitation with anti-β-catenin and protein-G beads, blot with anti-LEF-1

lymphoid enhancer factor-1 (from UniProt Q9UJU2 1-399)
binding: binds
